# Data reported in PubChem BioAssay AID2417 (National Center for Advancing Translational Sciences (NCATS), 2010).
# Among all 140,000 compounds or so, about 4,300 (3.1%) were called active. This list was built around the results that the source calls inconclusive (neither active nor inactive); the mix of calls is not that of the screen.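 How the source made its calls: active means readout at or below -70, meaning at least 70% loss of cells showing the perinucleolar compartment, a nuclear body marking cancer cells; inconclusive means readout between -30 and a set limit; inactive means the rest.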
# Test: High Content Assay for Compounds that inhibit the Assembly of the Perinucleolar Compartment;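 further: plate controls were DMSO wells for no effect and camptothecin positive control wells for full effect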
# Conditions: PC3M PTB-GFP, PNC prevalence imaging, 16 h; at 10 µM; hits give low values
# How it was run: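 Read-out is percentage of cells bearing a perinucleolar compartment, from automated 20x imaging of fixed, Hoechst-stained PC3M PTB-GFP cells. Cells were seeded 4 h, then exposed 16 h to compound (23 nl of library stock) in duplicate plates.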
row,Structure (SMILES),"activity change (PNC), negative = inhibition"
1,COC(=O)C1=C(O)/C(=C\c2sccc2C)N=C1C,inconclusive: -36.6%
2,CCCCn1c(N)c(-c2nc3ccccc3o2)c2c([N+](=O)[O-])nn(CC)c(=O)c21,inactive: 42%
3,O=c1[nH]c(CSc2nc(-c3ccc(F)cc3)cs2)nc2ccccc12,active: -116%
4,CCN(C1CCS(=O)(=O)C1)S(=O)(=O)c1cccs1 (stereo not given),active: -107%
5,Cc1ccccc1Nc1cccc2nonc12,active: -99.4%
6,COCCn1c(SCC(=O)NC(=O)NCc2ccccc2)nc2ccccc21,inconclusive: -44.4%
7,Cc1ccc(C(=O)NCC(=O)NCC(=O)OCc2ccc(Cl)cc2)cc1,inconclusive: -51.9%
8,CCOC(=O)/C(C#N)=C/c1ccc(OC(=O)c2ccccn2)cc1,inactive: 10.1%
9,C=CCn1c(COc2ccc(Cl)cc2)nnc1SCC(=O)Nc1ccc(S(N)(=O)=O)cc1,active: -114%
10,CNc1ccc(S(=O)(=O)NCC(=O)OCC(=O)Nc2cccc(Cl)c2Cl)cc1[N+](=O)[O-],inactive: -0.184%
11,Cc1cccc(OCC(O)Cn2c(=N)n(CCN3CCOCC3)c3ccccc32)c1 (stereo not given),inconclusive: -42.8%
12,Fc1ccc(Oc2nccc(-c3ccc(Cl)cc3)n2)cc1,inconclusive: -45.7%
13,c1ccc2c(c1)nc(CN1CCOCC1)n1c3ccccc3nc21,inconclusive: -40.5%
14,C/C(=N\NC(=S)Nc1ccc(C)c(C)c1)c1ccc(N2CCOCC2)cc1,inconclusive: -38.5%
15,CCOC(=O)C1=C(C)N=C2SC(C)C(=O)N2C1/C=C/c1ccccc1OC (stereo not given),inconclusive: -30.9%
16,COc1ccc(CC(=O)NNc2ncnc3c2cnn3-c2ccc(C)cc2)cc1OC,inconclusive: -44.4%
17,O=C(NC1CCCC1)C(c1cccs1)N(Cc1ccco1)C(=O)Cn1nnc(-c2cccs2)n1 (stereo not given),inconclusive: -50.6%
18,O=C(CSCc1nc2ccccc2[nH]1)N1CCN(c2cccc(Cl)c2)CC1,inactive: 7.59%
19,COc1ccc(C2CC(=O)C3=C(C2)Nc2ccccc2NC3c2coc3ccccc3c2=O)cc1OC (stereo not given),inconclusive: -40.7%
20,O=C(Nc1ccc(OCC(F)(F)C(F)F)c(C(F)(F)F)c1)c1ccccc1O,inconclusive: -70.6%
21,Cc1cc2nnc(SC3CCCCN(C(=O)c4ccc(F)cc4)C3=O)n2c2ccccc12 (stereo not given),inactive: -8.13%
22,Cc1c(C(=O)NCCSCc2ccc(Cl)cc2Cl)cccc1[N+](=O)[O-],inactive: 11.5%
23,O=c1c2ccccc2nc(-c2cccs2)n1-c1ccc2ccccc2c1,inconclusive: -38.4%

row,Structure (SMILES),"activity change (PNC), negative = inhibition"
1,CCCC(=O)Nc1c(-c2cccs2)c(=O)c2ccccc2n1C,inconclusive: -54.8%
2,O=C(NCc1ccccn1)c1cc(-c2ccc(Br)cc2)nc2ccccc12,inconclusive: -41.2%
3,O=P(OC1CCS(=O)(=O)C1)(c1ccccc1)c1ccccc1 (stereo not given),inactive: 13.3%
4,Fc1ccc(CNCc2ccccc2C(F)(F)F)cc1,active: -114%
5,CCCCn1c(NCc2ccc3c(c2)OCO3)nc2ccccc21,inactive: 23.6%
6,COC(=O)c1ccc(C)c(NC(=O)Cn2cnc3ccccc3c2=O)c1,inconclusive: -52.2%
7,COc1ccc(-c2csc(Cc3nnc4n3CCCCC4)n2)cc1,inconclusive: -41.5%
8,CCOC(=O)CSc1nc2c(sc(=S)n2-c2ccccc2OC)c(=O)n1Cc1ccco1,inactive: -14.8%
9,Cc1ccc(S(=O)(=O)Nc2cc(-c3nn(C)c(=O)c4ccccc34)ccc2N2CCOCC2)cc1,inconclusive: -52.7%
10,Clc1ccccc1COc1ccc(/C=N/n2cnnc2)cc1,inconclusive: -70.9%
11,Cc1cccc(C(=O)N2CCN(c3ccccn3)CC2)c1,inactive: 2.57%
12,CNC(=S)N/N=C/c1cn(Cc2ccc(F)cc2)c2ccccc12,inconclusive: -42.4%
13,COc1ccc(CCCC(=O)NC2CCCCC2C)c(C)c1 (stereo not given),inactive: 6.44%
14,CCOC(=O)c1ccc(NC(=O)C2CCCO2)cc1 (stereo not given),inactive: 25.4%
15,CCOCCCNC(=O)c1ccccc1SC,inconclusive: -31.2%
16,COc1cc(C2=NOC(C(=O)Nc3ccc(C)cc3)C2)cc(OC)c1OC (stereo not given),inconclusive: -35.8%
17,Cc1cc(NC(=O)C2CCC2)n(-c2ccccn2)n1,inactive: 43.5%
18,COc1ccc(NC2CS(=O)(=O)CC2NCc2ccccc2)cc1 (stereo not given),active: -116%
19,Cc1cccc(/C=N/n2c(-c3ccncc3)n[nH]c2=S)c1,inconclusive: -54.8%
20,Cc1nn(C)c(Oc2ccc(Cl)cc2)c1C(=O)O,inconclusive: -58.6%
21,COc1ccc(NS(=O)(=O)c2cc(NC(=O)c3ccncc3)ccc2N2CCOCC2)cc1,inactive: 12.4%
22,O=[n+]1c2c(n([O-])c3cc(F)c(N4CCCC4)cc31)CCCC2,inconclusive: -30.8%
23,Nc1nnnn1/N=C/c1ccccc1OCc1ccc(Cl)cc1,inconclusive: -38.5%

# Copied from the list:
# CNc1ccc(S(=O)(=O)NCC(=O)OCC(=O)Nc2cccc(Cl)c2Cl)cc1[N+](=O)[O-] | activity change (PNC), negative = inhibition: inactive: -0.184%
# Cc1cccc(C(=O)N2CCN(c3ccccn3)CC2)c1 | activity change (PNC), negative = inhibition: inactive: 2.57%
# Fc1ccc(CNCc2ccccc2C(F)(F)F)cc1 | activity change (PNC), negative = inhibition: active: -114%

# Carrying on:

row,Structure (SMILES),"activity change (PNC), negative = inhibition"
1,Fc1ccc(C(c2nnnn2Cc2cccs2)N2CCN(c3ccccc3)CC2)cc1 (stereo not given),inconclusive: -51.5%
2,COc1ccc(-c2noc(CCCC(=O)NCc3ccco3)n2)cc1OC,inconclusive: -57.8%
3,COc1ccccc1NS(=O)(=O)c1cc(NC(=S)Nc2cc(C)cc(C)c2)ccc1Cl,inactive: 21.5%
4,COC(=O)CSc1nnc([C@H](CC(C)C)NC(=O)OC(C)(C)C)o1,inactive: 1.89%
5,COc1ccc(CNC(NC(=O)c2ccccc2)(C(F)(F)F)C(F)(F)F)cc1,inactive: -17.8%
6,Cc1c(C(=O)NC(=S)Nc2ccccc2N2CCCC2)cccc1[N+](=O)[O-],inconclusive: -31.8%
7,O=C1NC2=C(CCc3ccccc32)C(c2ccccc2)N1 (stereo not given),active: -113%
8,O=C(c1ccccc1)c1cc2ccc(O)cc2oc1=O,inactive: 22%
9,COc1ccc2c(c1)O[C@@H](c1ccc3c(c1)OCO3)[C@H](OC(=O)Nc1cc(OC)c(OC)c(OC)c1)C2=O,inconclusive: -74.2%
10,Cc1csc(NC(=O)c2cnccn2)n1,inconclusive: -68%
11,CC1CCN(c2nc3c(c(=O)n(C)c(=O)n3C)n2CCSc2ncccn2)CC1,inconclusive: -50.2%
12,CC1CCN(C(=O)COC(=O)c2n[nH]c3ccccc23)CC1,inconclusive: -48.5%
13,CCN1CCN(S(=O)(=O)c2ccc3ccccc3c2)CC1,inactive: 35.7%
14,CCC1CCc2c(sc3ncnc(N4CCOCC4)c23)C1 (stereo not given),active: -126%
15,O=C(Nc1ccc(Cl)cc1)N1CCC(c2nc(-c3cccs3)no2)CC1,inconclusive: -44.8%
16,N#C/C(=N\Nc1cc(Cl)cc(Cl)c1)c1nnc2n1CCCCC2,inconclusive: -48.4%
17,CC(Oc1ccc(Cl)cc1Cl)C(=O)NC(=S)N1CCc2ccccc21 (stereo not given),inactive: -27.1%
18,O=C1CC(N2CCN(c3ccccc3Cl)CC2)C(=O)N1c1cccc(F)c1 (stereo not given),inactive: 2.87%
19,COc1ccc(S(=O)(=O)N2CCCC(C(=O)NCc3ccccn3)C2)cc1 (stereo not given),inconclusive: -34.4%
20,COC(=O)c1ccc(N/C(C)=C/C(=O)c2ccc(C)o2)cc1,inactive: 25.7%
21,CCc1ccccc1NC(=O)C(CC)Sc1nc2cc3c(cc2c(=O)n1Cc1ccco1)OCO3 (stereo not given),inconclusive: -53.8%
22,CCOC(=O)c1cc(-c2ccccc2)sc1NC(=O)CN1C(=O)NC(CC)(c2ccc(F)cc2)C1=O (stereo not given),inconclusive: -41.7%
23,Cc1cc(=O)c2n(Cc3ccccc3Cl)nc[n+]2[nH]1,inactive: -20.7%

row,Structure (SMILES),"activity change (PNC), negative = inhibition"
1,CCc1ccc(NC(=O)c2ccc3ncsc3c2)cc1,inconclusive: -33%
2,CSc1ncc(Cl)c(C(=O)C(C#N)c2nc3c(C)cc(C)cc3c(=O)[nH]2)n1 (stereo not given),active: -94.6%
3,CCN(CC)c1ccc(NC(=O)c2cc(OC)cc(OC)c2)c(C)c1,active: -89.2%
4,COCC(=O)Nc1nc(-c2ccccc2)ns1,inactive: 76%
5,COc1ccc(-n2c(SCC(=O)NCCC(C)C)nc3ccsc3c2=O)cc1,inactive: -16.3%
6,O=C(NCc1ccc2c(c1)OCO2)C1CCC(CNS(=O)(=O)c2ccc(Cl)cc2)CC1 (stereo not given),inconclusive: -71.3%
7,Cc1cc(N/C(=N\S(=O)(=O)c2ccc(Cl)cc2)c2ccc(F)cc2)no1,inconclusive: -52.2%
8,Cc1cc2nccc(-c3ccco3)n2n1,inconclusive: -54.1%
9,COc1cc2c(cc1OC)/C(=C/C#N)NC(C)(C)C2,inconclusive: -36.5%
10,COc1ccc2c(c1)C(=NO)c1cc(OC)ccc1-2,inconclusive: -64.2%
11,CCCCOCCCNC(=O)c1cccs1,inconclusive: -42.7%
12,O=C(c1ccco1)N1CCN(C(=O)c2ccccc2Oc2ccccc2)CC1,active: -112%
13,CC(NC(=O)c1ccccc1)C(=O)OCC(=O)N1c2ccccc2Sc2ccccc21 (stereo not given),inconclusive: -39.1%
14,C=C(C)c1cccc(C(C)(C)NC(=O)N2CCN(c3ccccc3OC)CC2)c1,inconclusive: -57.5%
15,COC(=O)n1c(=S)oc2cc(Cl)ccc21,inconclusive: -34.3%
16,CCc1cccc(CC)c1NC(=O)COC(=O)CCc1cc(OC)c(OC)c(OC)c1,inactive: -28.6%
17,C/C(=N\NC(=O)C(c1ccncc1)N1CCOCC1)c1ccc(Br)cc1 (stereo not given),inconclusive: -55.6%
18,Cc1nn(Cc2ccccc2Cl)c2sc(C(=O)NC(C)(C)C)cc12,inactive: -23%
19,CC1CCCN(C(c2cccs2)c2nnnn2Cc2ccccc2)C1 (stereo not given),inactive: 15.4%
20,Cc1cc2c(cc1C)NC1(C(=O)Nc3ccccc31)C1=C(CC(C)(C)CC1=O)N2 (stereo not given),inconclusive: -58%
21,Cc1c(-n2cc(C(=O)c3ccccc3O)cc(C#N)c2=O)c(=O)n(-c2ccccc2)n1C,inconclusive: -59.3%
